The source of these data is patent US20250368686A1, “PEPTIDE DRUGS FOR S[…] D[…] BLOCKING HOMO- AND HETERO-DIMERIZATION OF OPIOID RECEPTORS” (OKINAWA INSTITUTE OF SCIENCE AND TECHNOLOGY SCHOOL …, priority 2022, published 2025).

Amino acid sequences for entries named in this document (tags omitted). Residues count along the entry.
UniProt P33535: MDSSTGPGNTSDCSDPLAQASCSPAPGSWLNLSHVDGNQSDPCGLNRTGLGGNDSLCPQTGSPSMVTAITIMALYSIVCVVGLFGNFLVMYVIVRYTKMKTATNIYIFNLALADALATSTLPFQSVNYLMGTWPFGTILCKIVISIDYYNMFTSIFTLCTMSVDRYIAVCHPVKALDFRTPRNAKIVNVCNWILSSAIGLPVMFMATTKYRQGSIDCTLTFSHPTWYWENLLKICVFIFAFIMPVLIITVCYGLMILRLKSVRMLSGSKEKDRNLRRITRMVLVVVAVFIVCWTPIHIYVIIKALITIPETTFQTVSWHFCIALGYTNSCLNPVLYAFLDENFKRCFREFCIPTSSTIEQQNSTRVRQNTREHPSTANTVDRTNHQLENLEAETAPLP
UniProt P33533, residues 207-238: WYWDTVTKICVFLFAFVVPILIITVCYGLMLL

Results are given in words; binding and its absence hold for the method and conditions named. Some results given as binding are weak or reduced against the parent protein; the word gives no strength.

The experiment has as its target µ-type opioid receptor (MOR), rat, wild type, fluorescently tagged, expressed in the PM of CHO-K1 cells (Example 1) (rat) (UniProt P33535). Put plainly: colocalisation index, SNAPf-tagged construct co-expressed with WT-MOR.

For the substance “DOR's TM5 conjugated with the SNAPf tag (from UniProt P33533 207-238)”, the binding result is “binds”.
